Results are given in words; binding and its absence hold for the method and conditions named. Binding seen in cells or lysates may run through a third protein. Here binding means that the protein was enriched with, or labelled near, the bait; the list need not be complete. For some assays here: No binding means not detected with the bait. Where a sequence is shown, tags or fusion partners need not be part of it. One block for each binder: values may come before it.
Tests used:
[1] = target: T1, 3xFLAG::LIN-42 (endogenously tagged, lin-42(xe321[3xflag::lin-42])) (C. elegans (endogenous in animals)) (UniProt Q65ZG8); experiment: affinity purification with mass spectrometry; anti-FLAG M2 magnetic beads, 2 h at 4 °C, cleared extracts of mixed-stage 3xflag::lin-42 animals in 50 mM Tris-HCl pH 7.5, 150 mM NaCl, 1% Triton X-100, 1 mM EDTA; control strain sart-3::gfp::3xflag; label-free quantification
T1 sequence: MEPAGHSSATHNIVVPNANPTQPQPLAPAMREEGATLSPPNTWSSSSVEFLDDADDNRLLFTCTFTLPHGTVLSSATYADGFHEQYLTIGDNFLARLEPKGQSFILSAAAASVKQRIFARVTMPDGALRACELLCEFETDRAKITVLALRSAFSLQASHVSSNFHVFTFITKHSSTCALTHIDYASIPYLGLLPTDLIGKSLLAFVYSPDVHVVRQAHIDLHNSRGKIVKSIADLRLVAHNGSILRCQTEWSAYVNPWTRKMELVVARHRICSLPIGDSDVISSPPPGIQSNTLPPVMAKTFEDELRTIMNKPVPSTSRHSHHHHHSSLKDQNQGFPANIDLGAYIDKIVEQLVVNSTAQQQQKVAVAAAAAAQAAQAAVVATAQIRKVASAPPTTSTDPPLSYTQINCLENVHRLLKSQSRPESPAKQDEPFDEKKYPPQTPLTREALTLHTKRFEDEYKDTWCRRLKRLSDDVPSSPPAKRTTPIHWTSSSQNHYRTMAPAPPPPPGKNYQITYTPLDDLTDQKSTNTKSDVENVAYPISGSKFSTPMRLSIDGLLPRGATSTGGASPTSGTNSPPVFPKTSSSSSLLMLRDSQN

[2] = target: T2, 3xFLAG::LIN-42 (endogenously tagged, lin-42(xe321[3xflag::lin-42])) (C. elegans (endogenous in animals)), Q65ZG8; experiment: as above; settings: remark: other sources report otherwise
T2 chain: T1 sequence

- binding [1]: binds
B1: KIN-20 (endogenous, untagged) (enzyme, UniProt Q20471-1 1-479)
chain: MATMSNDAAAAATWHNNTSTPMDTTEPATNSHNPGETAVIGGPEALLLPSGSGPEEMNRHPLLMAQAHGEHHQPRLLHNFPVIPPPIQQHQQPPLLQQAQPSQIPHPTQPQIDPTMFTQQSGFNWPPIDPNTIAALAQAQLASSHAQFVSLALTLDPTLLSHFLATQQIPPVPQPLVHKKAEMELRVGNRFRLGRKIGSGSFGDIYLGQNIQTNEEVAVKLECVKSKHPQLHIESRLYRIMLGGIGIPEIRWCGQEGDYNVMVMELLGPSLEDLFNFCQRKFSLKTVLLLADQMLSRVEFIHCRDYIHRDIKPDNFLMGLGKRGNLVYIIDFGLAKRYRDSKHQHIAYRENKNLTGTARYASINTHRGIEQSRRDDIESLGYVFMYFNRGTLPWQGLKAVTKRQKYELISEKKISTRVDDLCAGYPEAFAQYLNYCRSLGFEEQPDYGYLRNLFRTLFHRQQFCYDYVFDWNTYKFRRN

- binding [2]: no binding
B2: NHR-85, Q9XUK7 1-514 (protein)
chain: MDLSTSGSLPCHLPLSLLTNLQTPPIDTSFSSPPATSSSSLLSPSPSSAFRPVVPKSLMNPQPAMDTFYMSAIQSLVVSTTNDDQYSEHGALEGSKSLAKDENASTSAGTILCQVCSDKASGFHYGVFACEGCKGFFRRSIQQKITYRACTRAEDCLILRNNRNRCQCCRLKKCLAVGMSRDAVRFGRVPKREKARMFEEMQKTNVQSQRDQIAIQYENLTEVMHKINQAFGTLQATLEKCTGPIYTDRCPITSNFIVIPLKAAIDFANSIPAFLSITQTQRVHLLQNSVFDVMLLASASASTSQHFPPGGLTYDQSSANPIIPQAIQSISARIRQLPPQTVPILTAIAVCQADLLPESQQPMLLAERLWCVLGKLGGIQSLATAPSLLADVRTLRQWHSDRLRQMSQISQHFSQNLLIAPVAAAAPVLLPPAFLSPPASATSTSSSSVKSEFIERHPSIASLLERPRRISSSGAQEPLNLSLPHVRHQVKRDVDSDEQLEEMKVSPVPTTLSE
